Test results from article PMC12663137 (Nature Communications, 2025).
Some entries of the source have several records that differ or are many. The other results are left out here. An entry can have further records. Results that share an entry do not match, cause unknown; some may be repeats, others may stem from another dose, organism or construct than stated.

The chains behind the UniProt entries cited, without tags or fusion partners. Where a name states a change or a piece, a line headed by the entry shows the natural chain unless it says otherwise. Residues count along the entry.
UniProt Q7L0J3, whole entry: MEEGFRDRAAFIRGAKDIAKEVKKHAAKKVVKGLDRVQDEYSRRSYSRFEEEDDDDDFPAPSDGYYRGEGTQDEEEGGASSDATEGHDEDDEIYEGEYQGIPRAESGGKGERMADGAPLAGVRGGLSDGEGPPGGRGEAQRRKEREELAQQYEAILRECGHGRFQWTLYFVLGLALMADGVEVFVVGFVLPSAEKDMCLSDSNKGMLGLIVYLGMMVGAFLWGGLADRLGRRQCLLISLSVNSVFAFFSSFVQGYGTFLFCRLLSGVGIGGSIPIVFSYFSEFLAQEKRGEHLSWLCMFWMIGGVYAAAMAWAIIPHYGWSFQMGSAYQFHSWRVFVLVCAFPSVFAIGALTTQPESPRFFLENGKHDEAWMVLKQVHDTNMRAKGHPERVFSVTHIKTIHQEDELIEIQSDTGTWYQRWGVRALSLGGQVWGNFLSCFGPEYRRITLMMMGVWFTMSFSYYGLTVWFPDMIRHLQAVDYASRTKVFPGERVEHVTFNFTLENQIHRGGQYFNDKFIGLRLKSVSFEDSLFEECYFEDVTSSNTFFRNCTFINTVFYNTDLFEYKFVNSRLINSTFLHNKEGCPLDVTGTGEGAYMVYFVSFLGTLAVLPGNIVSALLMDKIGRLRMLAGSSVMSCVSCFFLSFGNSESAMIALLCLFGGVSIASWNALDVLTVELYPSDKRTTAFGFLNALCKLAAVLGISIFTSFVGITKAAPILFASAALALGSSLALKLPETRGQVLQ
UniProt Q7L0J3, 141-742 F188A limits assumed: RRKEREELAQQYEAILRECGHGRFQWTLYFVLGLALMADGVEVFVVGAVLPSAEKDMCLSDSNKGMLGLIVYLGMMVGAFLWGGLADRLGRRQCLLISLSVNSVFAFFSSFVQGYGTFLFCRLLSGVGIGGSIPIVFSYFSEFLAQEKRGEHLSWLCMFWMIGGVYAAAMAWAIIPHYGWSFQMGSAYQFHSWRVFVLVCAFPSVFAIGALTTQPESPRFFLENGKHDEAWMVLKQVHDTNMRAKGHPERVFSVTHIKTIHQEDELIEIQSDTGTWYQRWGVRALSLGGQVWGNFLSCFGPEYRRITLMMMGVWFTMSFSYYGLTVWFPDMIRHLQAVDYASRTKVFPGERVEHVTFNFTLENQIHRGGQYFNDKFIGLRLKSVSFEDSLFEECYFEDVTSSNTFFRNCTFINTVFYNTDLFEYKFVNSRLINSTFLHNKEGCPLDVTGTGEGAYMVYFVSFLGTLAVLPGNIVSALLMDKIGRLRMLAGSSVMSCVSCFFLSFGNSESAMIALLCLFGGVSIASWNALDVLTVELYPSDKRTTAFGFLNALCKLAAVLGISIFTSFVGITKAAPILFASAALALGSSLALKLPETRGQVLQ
UniProt Q7L0J3, 141-742 limits assumed: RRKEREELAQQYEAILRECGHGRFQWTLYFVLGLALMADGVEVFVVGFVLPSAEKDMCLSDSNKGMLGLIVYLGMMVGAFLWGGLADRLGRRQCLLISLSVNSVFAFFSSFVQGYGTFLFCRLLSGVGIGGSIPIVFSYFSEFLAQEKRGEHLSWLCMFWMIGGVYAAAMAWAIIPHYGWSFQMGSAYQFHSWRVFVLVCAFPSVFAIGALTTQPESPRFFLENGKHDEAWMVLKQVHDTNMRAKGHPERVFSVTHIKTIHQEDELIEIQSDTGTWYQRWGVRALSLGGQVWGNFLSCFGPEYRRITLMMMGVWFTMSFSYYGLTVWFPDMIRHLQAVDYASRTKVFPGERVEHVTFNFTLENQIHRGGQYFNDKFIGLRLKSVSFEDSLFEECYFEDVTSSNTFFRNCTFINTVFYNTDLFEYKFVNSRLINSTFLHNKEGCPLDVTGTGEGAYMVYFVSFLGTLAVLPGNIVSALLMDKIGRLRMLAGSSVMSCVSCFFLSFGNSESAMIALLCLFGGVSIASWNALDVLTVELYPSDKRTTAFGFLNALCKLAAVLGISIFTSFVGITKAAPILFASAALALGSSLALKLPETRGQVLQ

Assays:
SV2AEM = SV2AEM (Homo sapiens, UniProt Q7L0J3); assay: Competitive displacement of 10 nM 3H-UCB-J, SV2AEM membranes (Fig. 1A); conditions: SV2A_EM
[1] = molecular target: SV2AEM WT or SV2AEM F188A (Homo sapiens, UniProt Q7L0J3, F188A); assay: Dissociation kinetics of 3H-UCB-J (Fig. 4E); conditions: F188A, DMSO, tested as the radiolabelled form
[2] = molecular target: SV2AEM WT or SV2AEM F188A (Homo sapiens, UniProt Q7L0J3); assay: Dissociation kinetics of 3H-UCB-J (Fig. 4E); conditions: WT, DMSO, tested as the radiolabelled form
SV2A = SV2A (Homo sapiens, UniProt Q7L0J3); assay: Steady-state (saturation) binding of 3H-UCB-J with 30 µM UCB1244283 or 1% DMSO (Fig. 4A); conditions: tested as the radiolabelled form

Row | Binding of 3H-UCB-J (%) (SV2AEM; Log [Padsevonil] (M) -7.000) | 3H-UCB-J Binding (%) ([1]; 15 min) | 3H-UCB-J Binding (%) ([1]; 20 min) | 3H-UCB-J Binding (%) ([2]; 20 min) | 3H-UCB-J Binding (%) ([2]; 30 min) | 3H-UCB-J Binding (%) ([2]; 40 min) | 3H-UCB-J Binding (%) ([2]; 50 min) | 3H-UCB-J Binding (%) ([2]; 70 min) | 3H-UCB-J Binding (f.mol/assay) (SV2A; 3H-UCB-J 3.12 nM) | 3H-UCB-J Binding (f.mol/assay) (SV2A; 3H-UCB-J 12.50 nM) | 3H-UCB-J Binding (f.mol/assay) (SV2A; 3H-UCB-J 100.00 nM) | SMILES | Binding of 3H-UCB-J (%) (SV2AEM; Log [Padsevonil] (M) -7.301) | 3H-UCB-J Binding (f.mol/assay) (SV2A; 3H-UCB-J 0.78 nM)
1 | 11.96, 10.66, 7.38, 14.13, 23.27, 6.66% | – | – | – | – | – | – | – | – | – | – | COCc1nn2c(CN3CC(CC(F)(F)Cl)CC3=O)c(C(F)(F)F)nc2s1 (stereo not shown) | 13.33, 31.99, 42.07, 28.44, 41.07, 12.87% | –
2 | – | 1.05% and 3.24% | -0.29% and 0.29% | 2.24%, 14.06%, 8.82% | 0.76%, 3.34%, 3.64% | -0.73%, 1.87%, 5.76% | 1.42%, 4.53%, -0.0355% | 2.52% and -0.78% | 3, 2, 5, 4, 7 f.mol/assay | 10, 12, 28, 27 f.mol/assay | 32, 20, 39, 42, 55, 28 f.mol/assay | Cc1cnccc1CN1C[C@@H](c2cc(F)c(F)c(F)c2)CC1=O [UCB-J] | – | 3 f.mol/assay, 2 f.mol/assay, 1 f.mol/assay
